Data set [1] in a line: general procedure: Fmoc solid-phase peptide synthesis; HMP; HBTU/HOBt. As to conditions: whole synthesis, of theoretical.
Data set [2] in a line: solid-phase peptide synthesis. As to conditions: whole synthesis, of overall theoretical yield.
The nature of data set [3]: general procedure: Fmoc solid-phase peptide synthesis; allyl linker; HBTU/HOBt. The note with it: whole synthesis, of theoretical.
Data set [4] can be described thus: general procedure: Fmoc solid-phase peptide synthesis; SASRIN; HBTU/HOBt. As to conditions: whole synthesis, of theoretical.

In US5576419A (Regents of the University of Minnesota, priority 1995, dated 1996) one finds isolated yield data, which are given here for four substances.

In data set [1], (Gly-Pro-Hyp)8 registered an isolated yield of 13.5%. As to “(Gly-Pro-Hyp)8 -Gly-Glu-Phe-Tyr-Phe-Asp-Leu-Arg-Leu-Lys-Gly-Asp-Lys”, in data set [2], the isolated yield is listed as 32.9%. In the case of “(Gly-Pro-Hyp)8 -Gly-Val-Lys-Gly-Asp-Lys-Gly-Asn-Pro-Gly-Trp-Pro-Gly-Ala-Pro”, the isolated yield in data set [3] is on record as 4.7%. “(Gly-Pro-Hyp)3 -Gly-Val-Lys-Gly-Asp-Lys-Gly-Asn-Pro-Gly-Trp-Pro-Gly-Ala-Pro” registered an isolated yield in data set [4] of 13.6%.
